One experiment deals with T1, GST-fused HYL1 (UniProt O04492).
T1 sequence (looked up): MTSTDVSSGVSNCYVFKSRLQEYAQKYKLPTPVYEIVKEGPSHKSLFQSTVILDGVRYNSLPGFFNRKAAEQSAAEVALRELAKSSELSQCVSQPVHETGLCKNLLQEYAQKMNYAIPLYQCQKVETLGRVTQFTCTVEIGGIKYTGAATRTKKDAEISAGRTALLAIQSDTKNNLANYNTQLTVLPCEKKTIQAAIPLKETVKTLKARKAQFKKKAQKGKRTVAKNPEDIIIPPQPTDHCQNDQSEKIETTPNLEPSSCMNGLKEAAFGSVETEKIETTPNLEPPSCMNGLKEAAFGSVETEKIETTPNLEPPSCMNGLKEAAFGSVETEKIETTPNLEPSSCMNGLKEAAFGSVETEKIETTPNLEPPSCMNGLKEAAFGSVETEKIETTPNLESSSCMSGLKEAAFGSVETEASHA
Briefly: co-immunoprecipitation with GST-fused HYL1.

Experiment [1] has as its target T2, HYL1-6Myc (from hyl1-2/35S-HYL1-6Myc transgenic plant) (UniProt O04492).
T2 sequence (looked up): T1 sequence (looked up)
Briefly: co-immunoprecipitation from hyl1-2/35S-HYL1-6Myc plants with anti-MYC antibody.

The target in another experiment is T3, serrate (SE), endogenous (UniProt Q9ZVD0).
T3 sequence (looked up): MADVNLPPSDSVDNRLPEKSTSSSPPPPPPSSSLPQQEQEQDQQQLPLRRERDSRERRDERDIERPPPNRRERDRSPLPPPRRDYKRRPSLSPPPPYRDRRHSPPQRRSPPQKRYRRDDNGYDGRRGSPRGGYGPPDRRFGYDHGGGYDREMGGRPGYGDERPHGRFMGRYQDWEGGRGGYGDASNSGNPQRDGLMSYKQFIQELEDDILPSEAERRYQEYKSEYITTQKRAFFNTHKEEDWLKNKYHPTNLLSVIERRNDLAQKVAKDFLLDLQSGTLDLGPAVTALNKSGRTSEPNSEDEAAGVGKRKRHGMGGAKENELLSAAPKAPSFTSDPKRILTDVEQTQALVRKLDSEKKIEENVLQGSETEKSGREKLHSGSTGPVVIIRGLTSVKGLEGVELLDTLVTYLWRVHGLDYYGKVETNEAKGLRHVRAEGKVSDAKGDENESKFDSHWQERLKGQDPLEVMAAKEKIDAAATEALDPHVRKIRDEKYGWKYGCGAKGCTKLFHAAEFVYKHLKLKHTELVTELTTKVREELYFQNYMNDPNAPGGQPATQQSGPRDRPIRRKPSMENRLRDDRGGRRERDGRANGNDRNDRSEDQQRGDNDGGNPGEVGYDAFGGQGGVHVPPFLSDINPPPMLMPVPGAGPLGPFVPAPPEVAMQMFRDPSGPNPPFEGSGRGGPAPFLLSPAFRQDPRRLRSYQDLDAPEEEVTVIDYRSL
Briefly: co-immunoprecipitation from WT/35S-HIGLE-6Myc plants with anti-Myc antibody, SE detected with anti-SE antibody.

Results are given in words; binding and its absence hold for the method and conditions named. In cells and extracts the contact can be indirect. Some binding calls cover weakened binding; strength is not graded here. Tags and fused reporters may be left off the sequences shown.

B1: HIGLE (HYL1 interacting GIY-YIG-like endonuclease), untagged or construct not stated (enzyme)
chain: MREKRGNRKALDPVGEDGVTGKDGKGFFACYLLTSLSPRHKGQTYIGFTVNPRRRIRQHNGEITSGAWRTKKKRPWEMVLCIYGFPTNVSALQFEWAWQHPRESVAVREAAAAFKSFSGVASKIKLVYTMLNLPAWNSLNLTVNYFSSKYAHHGGKSPSLPLHMKVQVCAMEDLQYFTKVDDSSQPEDEESPEVNEEDDDDDDDDSSNLSQPGNSNTSSSDDRHFEKAKEPVTVFDEEDRLANFSGFGLLDEEETVEDEVSHITVGSIRATEKEPETVFNDRLASFTCFGLVEIVEDEVSHGTIGSTEAMEKECRKRRNHITSTTTEVDVEVIDLMTPSPSCRAGSSMKRRRVSEFIDLTMSPNFIES
For the molecule B1, the binding entry (with GST-fused HYL1; in experiment [1]) was “binds” each time.

B2: HIGLE-6Myc (from WT/35S-HIGLE-6Myc transgenic plant) (enzyme, not shown: small tags and cut ends)
chain: B1 chain
On to B2, for which the binding result in the experiment with serrate (SE), endogenous is given as “binds”.

For the origin of these results see patent US20170283857A1.
